Counter-ions that a name gives are not always drawn. The list shows a part of the results. Single values are uncertain, as repeats are few or missing.
Key:
[1] = test system: Saos-2; assay: cell viability (CCK-8) relative to DMSO control (% of control); higher = less cytotoxic; conditions: 10 µM; 48 h
[2] = test system: U2OS; assay: as above; conditions: 10 µM; 48 h

Row | SMILES | cell viability [1] | cell viability [2]
1 | CO/N=C(\C(=O)N[C@@H]1C(=O)N2C(C(=O)OC(C)OC(C)=O)=C(COC(N)=O)CS[C@H]12)c1ccco1 (some centres undefined) [Cefuroxime Axetil] | 97.8 | 74.6
2 | CC(=O)N[C@@H](CS)C(=O)O [N-Acetyl-L-cysteine] | 92.9 | 85.3
3 | COc1cccc2c1C(=O)c1c(O)c3c(c(O)c1C2=O)C[C@@](O)(C(=O)CO)C[C@@H]3O[C@H]1C[C@H](N)[C@H](O)[C@H](C)O1 [Doxorubicin . HCl] | 27.9 | 28.5
4 | CNCCC=C1c2ccccc2CCc2ccccc21 [Nortriptyline·HCl] | 96.8 | 111
5 | COC(=O)Nc1nc2cc(C(=O)c3ccccc3)ccc2[nH]1 [Mebendazole] | 31.9 | 46.6
6 | CC(=O)NCCCS(=O)(=O)O [Acamprosate calcium] | 94.4 | 81.5
7 | Nc1nc(=O)c2c([nH]1)NCC(CNc1ccc(C(=O)N[C@@H](CCC(=O)O)C(=O)O)cc1)N2C=O (some centres undefined) [Leucovorin Calcium Pentahydrate] | 113 | 95.2
8 | Cc1c(O)cccc1C(=O)N[C@@H](CSc1ccccc1)[C@H](O)CN1C[C@H]2CCCC[C@H]2C[C@H]1C(=O)NC(C)(C)C [Nelfinavir Mesylate] | 61.7 | 113
9 | C[C@@H](O[C@H]1OCCN(Cc2n[nH]c(=O)[nH]2)[C@H]1c1ccc(F)cc1)c1cc(C(F)(F)F)cc(C(F)(F)F)c1 [Aprepitant] | 64.9 | 95.2
10 | C=CC(N)CCC(=O)O (centres undefined) [Vigabatrin] | 89 | 86.6
11 | COc1cc2nc(N3CCN(C(=O)C4CCCO4)CC3)nc(N)c2cc1OC (centres undefined) [Terazosin·HCl] | 62.6 | 106
12 | CC[C@@H]1/C=C(\C)C[C@H](C)C[C@H](OC)[C@H]2O[C@@](O)(C(=O)C(=O)N3CCCC[C@H]3C(=O)O[C@H](/C(C)=C/[C@@H]3CC[C@H](Cl)[C@H](OC)C3)[C@H](C)[C@@H](O)CC1=O)[C@H](C)C[C@@H]2OC [Pimecrolimus] | 92.4 | 118
13 | CCOC(=O)[C@H](CCc1ccccc1)N[C@@H](C)C(=O)N1[C@H](C(=O)O)C[C@H]2CCCC[C@@H]21 [Trandolapril] | 108 | 85.5
14 | CC(=O)CC(c1ccccc1)c1c(O)c2ccccc2oc1=O (centres undefined) [Warfarin] | 112 | 78.3
15 | CCCc1cc(=O)[nH]c(=S)[nH]1 [Propylthiouracil] | 106 | 99.5
16 | O=C1Nc2ccc(Cl)cc2[C@@](C#CC2CC2)(C(F)(F)F)O1 [Efavirenz] | 59.2 | 101
17 | C[C@@H]1C[C@H]2[C@@H]3CCC4=CC(=O)C=C[C@]4(C)[C@@]3(F)[C@@H](O)C[C@]2(C)[C@@]1(O)C(=O)CO [Dexamethasone] | 57.2 | 103
18 | C#C[C@]1(O)CC[C@H]2[C@@H]3CCC4=CC(=O)CC[C@@H]4[C@H]3CC[C@@]21C [Norethindrone] | 71.2 | 97.9
19 | CN(C)CCC(c1ccc(Br)cc1)c1ccccn1 (centres undefined) [Brompheniramine Maleate] | 112 | 47.1
20 | CCCCC1=NC2(CCCC2)C(=O)N1Cc1ccc(-c2ccccc2-c2nnn[nH]2)cc1 [Irbesartan] | 105 | 96.4
21 | COc1ccc2cc([C@H](C)C(=O)O)ccc2c1 [Naproxen] | 54.9 | 104
22 | COc1ccc2[nH]c([S+]([O-])Cc3ncc(C)c(OC)c3C)nc2c1 (centres undefined) [Omeprazole] | 67.4 | 90.6
23 | CC(C(=O)O)c1ccc(-c2ccccc2)c(F)c1 (centres undefined) [Flurbiprofen] | 71.6 | 100
24 | CCN(CC)CCNC(=O)c1c(C)[nH]c(/C=C2\C(=O)Nc3ccc(F)cc32)c1C [Sunitinib . malate] | 25.5 | 53.2
25 | Cn1c(=O)c2nc[nH]c2n(C)c1=O [Theophylline] | 106 | 95.8
26 | CCCCCOc1ccc(-c2cc(-c3ccc(C(=O)N[C@H]4C[C@@H](O)[C@@H](O)NC(=O)[C@@H]5[C@@H](O)[C@@H](C)CN5C(=O)[C@H]([C@H](O)CC(N)=O)NC(=O)[C@H]([C@H](O)[C@@H](O)c5ccc(O)c(OS(=O)(=O)O)c5)NC(=O)[C@@H]5C[C@@H](O)CN5C(=O)[C@H]([C@@H](C)O)NC4=O)cc3)no2)cc1 [Micafungin] | 112 | 107
27 | COc1c(N2C[C@@H]3CCCN[C@@H]3C2)c(F)cc2c(=O)c(C(=O)O)cn(C3CC3)c12 [Moxifloxacin·HCl] | 52.4 | 107

Whole records from above. Values in the order: cell viability [1] | cell viability [2]
COc1cc2nc(N3CCN(C(=O)C4CCCO4)CC3)nc(N)c2cc1OC (centres undefined) [Terazosin·HCl] in the list: 62.6 | 106
CCN(CC)CCNC(=O)c1c(C)[nH]c(/C=C2\C(=O)Nc3ccc(F)cc32)c1C [Sunitinib . malate] in the list: 25.5 | 53.2

Source: the supplement of paper PMC9433722
